# Test results from the supplement of paper PMC7125110.
# ± gives the standard error. Many entries were measured with a wide error.
# B1: glmS ribozyme (parent)
# chain: AUAAAAGCGCCAGAACUACAGAAAUGUAGUUGACGAGGAGGAGGUUUAUCGAAUUUUCGGCGGAUGCCUCCAAA
# Variants of: B1
# Experiment: self-cleavage kobs at 160 uM GlcN6P; higher = faster cleavage; RNA array
# Conditions: with glucosamine-6-phosphate
# How it was run: (§1)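 Glucosamine-6-phosphate (40 μM to 10 mM) in HEPES/KCl/Mg(OAc)2 buffer was flowed over sequenced MiSeq chips, and tiles were imaged over ~14 h. Barcoded ribozyme variants there had been transcribed in situ by E. coli RNA polymerase and were tracked through a hybridised Cy3 probe at 37 °C. One- or two-exponential decay fits to per-tile medians, normalised to baseline and to non-cleaving reference variants, gave kobs. kcat and KM came from weighted Michaelis–Menten fits across concentrations.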
row,Variant,self-cleavage kobs at 160 uM GlcN6P [s⁻¹]
1,AUAAAAGCGCCAUAACUACAGAAAUGUAGUUGACGAGGAGGAGGUUUAUCGAGUUUUCGGAGGAUGCCUCGAAA [G13U A53G C61A C71G],3.03e-05 ± 2.3e-05
2,AUAAAAGCGCCAGUACUACAGAAAUGUAGUUGACGAGGAAGAGGUUUAUCGACUUUUCGGCGGAUGCCUCAAAA [A14U G40A A53C C71A],2.27e-05 ± 1.7e-05
3,AUAAAAGCGCCAGUACUACAGAAAUGUAGGUGACGAGGAAGAGGUUUAUCGAAUUUUCGGCGGAUGCCUCCAAA [A14U U30G G40A],4.08e-05 ± 2.3e-05
4,AUAAAAGCGCCAGAGCUACAGAAAUGUAGUUGACGAGGAGGAGGUUUAUCGAAUUUUCGGUGGAUGCAUCCAAA [A15G C61U C68A],2.38e-05 ± 2.3e-05
5,AUAAAAGCGCCAGAGCUACAGAAAUGUAUUUGACGAGGAGGAGGUUUAUCGAAUUUUCGGCGGAUGCCUGCAAA [A15G G29U C70G],9.13e-05 ± 4.8e-05
6,AUAAAAGCGCCAGAUCUACAGAAAUGUAGUUGACGAGGAGGAGGUUUAUCGAAUUUUCGGCGGAUGCGUCCAAA [A15U C68G],1.62e-05 ± 1.6e-05
7,AUAAAAGCGCCAGAAGUACAGAAAUGUAGAUGACGAGGAGGAGGUUUAUCGAAUGUUCGGCGGAUGCCUCCAAA [C16G U30A U55G],2.97e-05 ± 2.3e-05
8,AUAAAAGCGCCAGAACUACAGAAAUGUAAUUGACGAGGACGAGGUUUAUCGAAUUUUCGGCGGAUGCCUCCAAA [G29A G40C],2.62e-05 ± 2.2e-05
9,AUAAAAGCGCCAGAACUACAGAAAUGUAAUUGACGAGGAGGAGGUUUAUCGAAUUUUCGGCGGAAGCCUCCAAA [G29A U65A],1.97e-05 ± 1.6e-05
10,AUAAAAGCGCCAGAACUACAGAAAUGUACUUGACGAGGAGGAGGUUUAUCGAAUUUUCGGCGGAUGCGUCCAAA [G29C C68G],3.06e-05 ± 2.2e-05
11,AUAAAAGCGCCAGAACUACAGAAAUGUACUUGACGAGGAGGAGGUUUAUCGAAUGUUCGGCGGAUGCCUCCAAA [G29C U55G],1.89e-05 ± 1.2e-05
12,AUAAAAGCGCCAGAACUACAGAAAUGUAUUUUACGAGGAGGAGGUUUAUCGAAUUUUCGGCGGAUGCCUCCAAA [G29U G32U],1.63e-05 ± 1e-05
13,AUAAAAGCGCCAGAACUACAGAAAUGUAGAUGACGAGGAGGAGGUUUAUCGAAUUUUCGGCGGAUUCCUCCAAA [U30A G66U],2.11e-05 ± 1.5e-05
14,AUAAAAGCGCCAGAACUACAGAAAUGUAGCUCACGAGGAGGAGGUUUAUCGAAUUUUCGGCGGAUGCCUCCAAA [U30C G32C],3.89e-05 ± 2e-05
15,AUAAAAGCGCCAGAACUACAGAAAUGUAGUAGACGAGGAGGAGGUUUAUCGAAUUGUGGGCGGAUGCCUCCAAA [U31A U56G C58G],3.01e-05 ± 2e-05
16,AUAAAAGCGCCAGAACUACAGAAAUGUAGUCCACGAGGAGGAGGUUUAUCGAAUUUUCGGCGGAUGCCUCCAAA [U31C G32C],4.69e-05 ± 2.4e-05
17,AUAAAAGCGCCAGAACUACAGAAAUGUAGUCGACGAGGAGGAGGUUAAUCGAAUUCUCGGCGGAUGCCUCCAAA [U31C U47A U56C],3e-05 ± 1.6e-05

row,Variant,self-cleavage kobs at 160 uM GlcN6P [s⁻¹]
1,AUAAAAGCGCCAGAACUACAGAAAUGUAGUUGCCGAGGGGGAGGUUUAUCGAAUUUUCGGCGGAUGCCUCCAAA [A33C A39G],1.93e-05 ± 1e-05
2,AUAAAAGCGCCAGAACUACAGAAAUGUAGUUGCCGAGGUGGAGGUUUAUCGAAUUUUCGGCGGAUGCCUCCAAA [A33C A39U],2.35e-05 ± 1.2e-05
3,AUAAAAGCGCCAGAACUACAGAAAUGUAGUUGGCGAGGAGGAGGUUUAUCGACUUUUCGGCGGAUGCCUACAAA [A33G A53C C70A],2.41e-05 ± 1.7e-05
4,AUAAAAGCGCCAGAACUACAGAAAUGUAGUUGAGGAGGAGGAGGUUUAUGGAAUUUUCGGCAGAUGCCUCCAAA [C34G C50G G62A],2.6e-05 ± 1.6e-05
5,AUAAAAGCGCCAGAACUACAGAAAUGUAGUUGAGGAGGAGGAGGUUUAUCGAAUUGUCGGCGGAUGCCUUCAAA [C34G U56G C70U],2.57e-05 ± 2.1e-05
6,AUAAAAGCGCCAGAACUACAGAAAUGUAGUUGAGGAGGAGGAGGUUUAUCGAAUUUUCGGCGGAUGCCACCAAA [C34G U69A],1.78e-05 ± 1.7e-05
7,AUAAAAGCGCCAGAACUACAGAAAUGUAGUUGACGGGGAGGAGGUUUAUCGAAUUUUCGGCGGAUGCCCCGAAA [A36G U69C C71G],3.59e-05 ± 2.6e-05
8,AUAAAAGCGCCAGAACUACAGAAAUGUAGUUGACGAUGAGGAGGUUUAUCGAAUUUUCGGCGGAUGCAUCCAAA [G37U C68A],2.38e-05 ± 1.5e-05
9,AUAAAAGCGCCAGAACUACAGAAAUGUAGUUGACGAGUAGGAGGUUUAUCGAAUUUUCGGCGGAUGCCGCCAAA [G38U U69G],0.000329 ± 0.00018
10,AUAAAAGCGCCAGAACUACAGAAAUGUAGUUGACGAGGUGGAGGUUUUUCGAAUUUUCGGCGGAUGCCUCCAAA [A39U A48U],2.7e-05 ± 1.7e-05
11,AUAAAAGCGCCAGAACUACAGAAAUGUAGUUGACGAGGACGAGGCUUAUCGAAUUUUCGGCGGAUGCCUCCAAA [G40C U45C],2.01e-05 ± 2e-05
12,AUAAAAGCGCCAGAACUACAGAAAUGUAGUUGACGAGGAUGAGGUUUAUCGGAUUUUCGGCGGAUGCCUCCAAA [G40U A52G],2.59e-05 ± 1.8e-05
13,AUAAAAGCGCCAGAACUACAGAAAUGUAGUUGACGAGGAGGUGGUUUAUCGAAUUUUCGGCGGAUGUCUCCAAA [A42U C67U],1.57e-05 ± 1.2e-05
14,AUAAAAGCGCCAGAACUACAGAAAUGUAGUUGACGAGGAGGAGAAUUAUCGAAUUUUCGGCGGAUGCCUCCAAA [G44A U45A],3.27e-05 ± 1.7e-05
15,AUAAAAGCGCCAGAACUACAGAAAUGUAGUUGACGAGGAGGAGGAUUAUCGAAUUUUCGGCGGUUGCCUCCAAA [U45A A64U],3.02e-05 ± 2e-05
16,AUAAAAGCGCCAGAACUACAGAAAUGUAGUUGACGAGGAGGAGGUAUAUCGAAUUUUCGGCGGAUGCCUACAAA [U46A C70A],2.02e-05 ± 1.9e-05
17,AUAAAAGCGCCAGAACUACAGAAAUGUAGUUGACGAGGAGGAGGUUUAUCUAAUUUUCGGCGGAUGCCUCAAAA [G51U C71A],2.3e-05 ± 2.1e-05

# Part of the list above, set out differently:
row | Variant | self-cleavage kobs at 160 uM GlcN6P [s⁻¹]
8 | AUAAAAGCGCCAGAACUACAGAAAUGUAAUUGACGAGGACGAGGUUUAUCGAAUUUUCGGCGGAUGCCUCCAAA [G29A G40C] | 2.62e-05 ± 2.2e-05
9 | AUAAAAGCGCCAGAACUACAGAAAUGUAAUUGACGAGGAGGAGGUUUAUCGAAUUUUCGGCGGAAGCCUCCAAA [G29A U65A] | 1.97e-05 ± 1.6e-05

# Variants of: B1
# Experiment: self-cleavage kobs at 10000 uM GlcN6P; higher = faster cleavage; RNA array
# Conditions: with glucosamine-6-phosphate
# How it was run: as §1
row,Variant,self-cleavage kobs at 10000 uM GlcN6P [s⁻¹]
1,AUAAAAGCGCCAGAACUACAGAAAUGUACUUGACGAGGAGGAGGUUUAUCGAAUUUUCGGCGGAUGCGUCCAAA [G29C C68G],1.61e-05 ± 1.3e-05

# Variants of: B1
# Experiment: self-cleavage kobs at 2500 uM GlcN6P; higher = faster cleavage; RNA array
# Conditions: with glucosamine-6-phosphate
# How it was run: as §1
row,Variant,self-cleavage kobs at 2500 uM GlcN6P [s⁻¹]
1,AUAAAAGCGCCAGAACUACAGAAAUGUAGUUGAGGAGGAGGAGGUUUAUGGAAUUUUCGGCAGAUGCCUCCAAA [C34G C50G G62A],3.46e-05 ± 3e-05
2,AUAAAAGCGCCAGAACUACAGAAAUGUAGUUGACGAUGAGGAGGUUUAUCGAAUUUUCGGCGGAUGCAUCCAAA [G37U C68A],1.66e-05 ± 1.5e-05
